These are yes or no findings as the source states them, for the method shown. In cells and extracts the contact can be indirect. These calls come from enrichment with a bait or labelling near it, and not all partners need be listed.
T1: BRI2 (integral membrane protein 2B) (rat (endogenous in brain)) (UniProt Q5XIE8)
T1 sequence: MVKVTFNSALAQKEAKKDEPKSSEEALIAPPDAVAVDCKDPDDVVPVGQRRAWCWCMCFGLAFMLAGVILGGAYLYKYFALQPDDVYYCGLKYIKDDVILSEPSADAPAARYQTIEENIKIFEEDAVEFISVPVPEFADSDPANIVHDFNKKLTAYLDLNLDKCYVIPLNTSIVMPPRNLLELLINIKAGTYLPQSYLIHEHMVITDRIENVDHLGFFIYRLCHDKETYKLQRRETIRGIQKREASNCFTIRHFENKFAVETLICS


The binders below were run against T1, BRI2 (integral membrane protein 2B) (rat (endogenous in brain)) (assay: affinity purification with mass spectrometry; mouse anti-BRI2 antibody (N-terminal region) on Dynabeads Protein G; pre-cleared rat cerebral cortex, hippocampus and cerebellum lysates (50 mM Tris-HCl pH 8.0, 120 mM NaCl, 4% CHAPS), overnight at 4 °C; co-precipitated proteins identified by nano-HPLC-MS/MS; hits absent from the two mock IPs or with a PSM ratio >= 2.0).

Binder | binding
Guanine deaminase (protein, UniProt Q9WTT6 1-454) MCAARRRELALIFRGTFVHSTWTCPMEVLRDHLLGVSDSGKIVFLEESSQQEKLAKEWCFKPCEIRELSHHEFFMPGLVDTHIHAPQYAFAGSNVDLPLLDWLNKYTFPTEKRFQSTDVAEEVYTRVVRRTLKNGTTTACYFGTIHTDSSLILAEITDKFGQRAFVGKVCMDLNNTVPEYKETTEESVKETERFVSEMLQKNYSRVKPIVTPRFSLSCTETLMSELGNIAKTHDLYIQSHISENREEIEAVKSLYPGYKNYTDVYDKNNLLTNKTVMAHGCYLSEEELNVFSERGASIAHCPNSNLSLSSGLLNVLDVLKHKVKIGLGTDVAGGYSYSMLDAIRRAVMVSNVLLINKVNEKSLTLKEVFRLATLGGSQALGLDREIGNFEVGKDFDALLINPRASDSPIDLFCGDFVGDISEAVIQKFLYLGDDRNIEEVYVGGKQVVPFSSSV | binds
Hyaluronan and proteoglycan link protein 2 (protein, UniProt Q9ESM2 28-341) NPAPHPGPHYLLPPIHEVIHSRRGATATLPCVLGTSPPSYKVRWSKVEPGELRETLILITNGLHARDYGLLGGRASLRRGHRLDASLIIKNVRLEDEGRYRCELINGIEDESVALTLRLEGVVFPYQPSRGRYQFNYFEAKRACEEQDGRLATYSQLYQAWTEGLDWCNAGWLLEGSVRYPVLNARAPCGGHGRPGIRSYGPRDRSRDRYDAFCFTSALAGQVFFVPGRLTLSEAHAVCRRRGAVVAKVGHLYAAWKFSGLDRCDGGWLADGSVRFPITTPRPRCGGLPDPGVRSFGFPRPQQAAYGTYCYAEK | binds
Atlastin-1 (protein, UniProt Q6PST4 1-558) MAKSRRDRNSWGGFSEKSSDWSSEEEEPVRKAGPVQVLIVKDDHSFELDEAALNRILLSEAVRDKEVVAVSVAGAFRKGKSFLMDFMLRYMYNQESVDWVGDYNEPLTGFSWRGGSERETTGIQIWSEVFLINKLDGKKVAVLLMDTQGTFDSQSTLRDSATVFALSTMISSIQVYNLSQNVQEDDLQHLQLFTEYGRLAMEETFLKPFQSLIFLVRDWSFPYEFSYGADGGAKFLEKRLKVSGNQHEELQNVRKHIHSCFTNISCFLLPHPGLKVATNPNFDGKLKEIDDEFIKNLKILIPWLLSPESLDIKEINGNKITCRGLLEYFKAYIKIYQGEELPHPKSMLQATAEANNLAAVATAKDTYNKKMEEICGGDKPFLAPNDLQTKHLQLKEDSVKLFRGVKKMGGEEFSRRYLQQLESEIDELYIQYIKHNDSKNIFHAARTPATLFVVIFITYVIAGVTGFIGLDIIASLCNMIMGLTLITLCTWAYIRYSGEYRELGAVIDQVAAALWDQGSTNEALYKLYSAAATHRHLYQQAFPAPKSEPTEQPEKKKI | binds
Ankyrin repeat and sterile alpha motif domain-containing protein 1B (protein, UniProt P0C6S7 1-1260) MGKDQELLEAARTGNVALVEKLLSGRKGGILGGGSGPLPLSNLLSIWRGPNVNCTDSSGYTALHHAALNGHKDIVLKLLQFEASTNVADNKGYFPIHLAAWKGDVEIVKILIHHGPSHSRVNEQNNENETALHCAAQYGHSEVVAVLLEELTDPTIRNSKLETPLDLAALYGRLRVVKMIISAHPNLMSCNTRKHTPLHLAARNGHKAVVQVLLEAGMDVSCQTEKGSALHEAALFGKVDVVRVLLETGIDANIKDSLGRTVLDILKEHPSQKSLQIATLLQDYLEGVGRSVVLEEEHAQEDTAQETRLSSPAQSPSQKTKSETVTGELSKLLDEIKLCQEKDYSFEDLCHTISDHYLDNLSKISEEELGKNGSQSVRTSSTINLSPGEVEDEEEDPNSCGPTGLWEALTPCNGCRNLGFPMLAQESYPKKRNYPMEIVPSASLDTFPSENENFLCELVDTAVTKKPCSLEIARAPSPRTDNASEVAITAPGTGHHRNSSTGPTPDCSPPSPDTALKNIVKVIRPQPKQRTSIVSSLDFQRMNHNQEYFEISTSTGCTSFTSSPPVSPPTSSVETTEIKNEGAEHTDDLSQQEDDEPPKEYDAGQFAGLLHGSSPACEAPENPFHLYGKRNQGEDGQEEASLANSPLPFKQTPIENNPEPSVKKIKPKVVSRTIFHKRSHQLENHTIVGTRMSRGGSRNGDQWGVNPGGFVERACTLGRIRSLPKALIDMHLSKNVSKSDSDLIAYPSKDKARVNWSKSSTAERSSKDNSERTPSFTSEWEEIDKIMNSIDVGINSELEGMNGEATRPRCPVQTVGQWLESIGLPQYENHLTANGFDNVQFMGSNVMEDQDLLEIGILNSGHRQRILQAIQLLPKMRPIGHDGYHPTSVAEWLDSIELGDYTKAFLINGYTSMDLLKKIWELELINVLKISLIGHRKRILASLGDRLHEDPPQKPPRSITLREPSGNHTPPQLSPSLSQSTYTTGGSLDVPHIIMQGDARRRRNENYFDDIPRSKLERQMAQTGDWGEPSITLRPPNEATASTPVQYWQHHPEKLIFQSCDYKAFYLGSMLIKELRGTESTQDACAKMRANCQKSTEQMKKVPTIILSVSYKGVKFIDAANKNIIAEHEIRNISCAAQDPEDLSTFAYITKDLKSNHHYCHVFTAFDVNLAYEIILTLGQAFEVAYQLALQARKGGHSSTLPESFENKPSKPIPKPRVSIRKSVQIDPSEQKTLANLPWIVEPGQEAKRGINTKYETTIF | binds
Microtubule-associated protein 6 (protein, UniProt Q63560 1-952) MAWPCITRACCIARFWNQLDKADIAVPLVFTKYSEATEHPGAPPQPPAPPQPGLAPPSRAVAIETQPAQGESDAVARATGPAPGPSGDRETAAAPGRSGLGLGAASGSTSGSGPADSVMRQDYRAWKVQRPEPSCRPRSEYQPSDAPFERETQYQKDFRAWPLPRRGDHPWIPKPVQIPATSQPSPPVLGMPKRRPQSQERGPIQLSADARDPEGAGGAGVPAAGKASGADQRDTRRKAGPAWMVTRTEGHEEKPLPPAQSQTQEGGPAAGKASGADQRDTRRKAGPAWMVTRTEGHEEKPLPPAQSQTQEGGPAAGKASGADQRDTRRKAGPAWMVTRTEGHEETPLPPAQSQTQEGGPAAGKASGADQRDTRRKAGPAWMVTRTEGHEETPLPPAQSQTQEGGPAAGKASGADERDTRRKAGPAWMVRRSEGHEQTTAAHAQGTGPEGGKGRAVADALNRQIREEVTSTVSSSYRNEFRAWTDIKPVKPIKAKPQYKPPDDKMVHETSYSAQFKGEASKPTTADNKVVDRRRIRSLYSEPFKESPKVEKPSVQSSKPKKTSTSQKPLRKAKDKQVASGQAAKKKTTESPSATKPDDKEQSKEMNNKLAEAKESRVKPTSDKNQGPVAKEPHKDQGPVAPGLPKGQGPAVQEPLKDQGPMVPGLPKDQAPVVPGSLKGQSPTAPGPPKDQGAVLLGPMKDLGPVAPASVKDQDHMASELLKNKDSVPLAPAKAQSPLLPEPLKNQSPVVPARAKDQSFPAPAPTPLKDPGPVIPEPEKDGAPMVPERRKDQNASIMASLKNEAPVASESVKNQGLGGPEPAKDTGTDLKGHGSVFVAPVKSQGPVVPEPTKGQDPIIPALAKDQGPILPEPPKNQGPPVVLGPIKNQDPVIPVPLKGQDPVVPAPTKDPGPTAPDPLKSQGPRGPQLPTVSPSPPVMIPTVPHAEYIEGSP | binds
Limbic system-associated membrane protein (protein, UniProt Q62813 29-315) VRSVDFNRGTDNITVRQGDTAILRCVVEDKNSKVAWLNRSGIIFAGHDKWSLDPRVELEKRHALEYSLRIQKVDVYDEGSYTCSVQTQHEPKTSQVYLIVQVPPKISNISSDVTVNEGSNVTLVCMANGRPEPVITWRHLTPLGREFEGEEEYLEILGITREQSGKYECKAANEVSSADVKQVKVTVNYPPTITESKSNEATTGRQASLKCEASAVPAPDFEWYRDDTRINSANGLEIKSTEGQSSLTVTNVTEEHYGNYTCVAANKLGVTNASLVLFRPGSVRGIN | binds
Ketimine reductase mu-crystallin (protein, UniProt Q9QYU4 1-313) MRRAPAFLSADEVQDHLRSSSLLIPPLEAALANFSKGPDGGVMQPVRTVVPVAKHRGFLGVMPAYSAAEDALTTKLVTFYEGHSNNAVPSHQASVLLFDPSNGSLLAVMDGNVITAKRTAAVSAIATKFLKPPGSDVLCILGAGVQAYSHYEIFTEQFSFKEVRMWNRTRENAEKFASSVQGDVRVCSSVQEAVTGADVIITVTMATEPILFGEWVKPGAHINAVGASRPDWRELDDELMKQAVLYVDSREAALKESGDVLLSGADIFAELGEVVSGAKPAYCEKTTVFKSLGMAVEDLVAAKLVYDSWSSGK | binds

Next, values leading:

binding | Binder
binds | Mitochondrial glutamate carrier 2 (protein, UniProt Q505J6 1-320) MIACRMSSQDLSITAKLINGGIAGLVGVTCVFPIDLAKTRLQNQQGKDVYKGMTDCLVKTARAEGFLGMYRGAAVNLTLVTPEKAIKLAANDFLRQLLMQDGTQRNLKMEMLAGCGAGICQVVITCPMEMLKIQLQDAGRLAVCQQASASATPTSRPYSTGSTSTHRRPSATLIAWELLRTQGLSGLYRGLGATLLRDIPFSIIYFPLFANLNQLGVSELTGKASFTHSFVAGCAAGSVSAVAVTPLDVLKTRIQTLKKGLGEDTYRGVTDCARKLWTQEGAAAFMKGAGCRALVIAPLFGIAQGVYFIGIGERILKCFE
binds | Myelin proteolipid protein (protein, UniProt P60203 1-277) MGLLECCARCLVGAPFASLVATGLCFFGVALFCGCGHEALTGTEKLIETYFSKNYQDYEYLINVIHAFQYVIYGTASFFFLYGALLLAEGFYTTGAVRQIFGDYKTTICGKGLSATVTGGQKGRGSRGQHQAHSLERVCHCLGKWLGHPDKFVGITYALTVVWLLVFACSAVPVYIYFNTWTTCQSIAFPSKTSASIGSLCADARMYGVLPWNAFPGKVCGSNLLSICKTAEFQMTFHLFIAAFVGAAATLVSLLTFMIAATYNFAVLKLMGRGTKF
binds | Myelin-associated glycoprotein (protein, UniProt P07722 20-626) GHWGAWMPSSISAFEGTCVSIPCRFDFPDELRPAVVHGVWYFNSPYPKNYPPVVFKSRTQVVHESFQGRSRLLGDLGLRNCTLLLSTLSPELGGKYYFRGDLGGYNQYTFSEHSVLDIINTPNIVVPPEVVAGTEVEVSCMVPDNCPELRPELSWLGHEGLGEPTVLGRLREDEGTWVQVSLLHFVPTREANGHRLGCQAAFPNTTLQFEGYASLDVKYPPVIVEMNSSVEAIEGSHVSLLCGADSNPPPLLTWMRDGMVLREAVAESLYLDLEEVTPAEDGIYACLAENAYGQDNRTVELSVMYAPWKPTVNGTVVAVEGETVSILCSTQSNPDPILTIFKEKQILATVIYESQLQLELPAVTPEDDGEYWCVAENQYGQRATAFNLSVEFAPIILLESHCAAARDTVQCLCVVKSNPEPSVAFELPSRNVTVNETEREFVYSERSGLLLTSILTLRGQAQAPPRVICTSRNLYGTQSLELPFQGAHRLMWAKIGPVGAVVAFAILIAIVCYITQTRRKKNVTESPSFSAGDNPHVLYSPEFRISGAPDKYESEKRLGSERRLLGLRGEPPELDLSYSHSDLGKRPTKDSYTLTEELAEYAEIRVK

Reference: paper PMC5824958
